# In the supplement of paper PMC6411743:
# Sequences of proteins named here, by UniProt entry; tags and fusion partners are left off. A change or cut given only in a name is not applied to a line headed by its entry.
# UniProt P14317: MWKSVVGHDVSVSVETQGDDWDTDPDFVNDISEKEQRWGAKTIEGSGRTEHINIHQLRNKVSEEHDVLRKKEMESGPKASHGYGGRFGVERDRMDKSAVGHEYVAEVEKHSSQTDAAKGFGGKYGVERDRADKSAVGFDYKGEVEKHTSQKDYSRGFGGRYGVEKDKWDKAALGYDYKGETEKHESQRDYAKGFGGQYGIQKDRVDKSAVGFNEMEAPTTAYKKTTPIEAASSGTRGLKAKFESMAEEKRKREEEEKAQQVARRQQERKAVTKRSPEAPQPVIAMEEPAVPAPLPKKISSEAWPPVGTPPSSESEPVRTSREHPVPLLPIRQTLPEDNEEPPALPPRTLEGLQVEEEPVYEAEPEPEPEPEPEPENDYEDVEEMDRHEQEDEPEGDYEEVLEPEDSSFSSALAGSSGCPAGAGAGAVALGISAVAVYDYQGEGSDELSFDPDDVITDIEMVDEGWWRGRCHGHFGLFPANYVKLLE
# UniProt P13489: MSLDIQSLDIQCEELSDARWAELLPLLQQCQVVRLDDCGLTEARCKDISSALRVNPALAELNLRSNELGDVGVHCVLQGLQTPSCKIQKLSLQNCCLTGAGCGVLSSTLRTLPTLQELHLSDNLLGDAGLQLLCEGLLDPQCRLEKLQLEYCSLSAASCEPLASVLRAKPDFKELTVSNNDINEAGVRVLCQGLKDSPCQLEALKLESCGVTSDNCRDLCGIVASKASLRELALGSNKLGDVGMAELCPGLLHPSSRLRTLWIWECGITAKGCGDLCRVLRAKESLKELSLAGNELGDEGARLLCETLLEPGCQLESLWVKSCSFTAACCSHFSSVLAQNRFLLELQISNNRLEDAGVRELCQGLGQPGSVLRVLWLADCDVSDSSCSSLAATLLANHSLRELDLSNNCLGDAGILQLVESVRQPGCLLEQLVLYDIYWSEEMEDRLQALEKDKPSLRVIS
# UniProt P18859: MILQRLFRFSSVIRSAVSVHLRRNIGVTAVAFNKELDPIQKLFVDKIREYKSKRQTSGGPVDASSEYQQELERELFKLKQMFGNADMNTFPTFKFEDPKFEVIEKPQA
# UniProt P19474, whole entry: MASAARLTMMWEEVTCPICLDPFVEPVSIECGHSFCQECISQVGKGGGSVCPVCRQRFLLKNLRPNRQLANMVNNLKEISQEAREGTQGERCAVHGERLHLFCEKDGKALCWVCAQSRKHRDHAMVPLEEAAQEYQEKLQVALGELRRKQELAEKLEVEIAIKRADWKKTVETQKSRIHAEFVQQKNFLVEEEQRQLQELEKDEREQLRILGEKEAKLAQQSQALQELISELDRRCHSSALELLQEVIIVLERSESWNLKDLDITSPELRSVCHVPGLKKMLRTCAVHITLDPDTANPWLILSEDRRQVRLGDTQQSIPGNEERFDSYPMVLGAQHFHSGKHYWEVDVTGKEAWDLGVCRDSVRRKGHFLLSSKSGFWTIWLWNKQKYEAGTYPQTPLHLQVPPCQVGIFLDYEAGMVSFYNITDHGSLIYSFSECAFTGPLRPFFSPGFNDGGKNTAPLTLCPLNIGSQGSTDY
# UniProt P08621, whole entry: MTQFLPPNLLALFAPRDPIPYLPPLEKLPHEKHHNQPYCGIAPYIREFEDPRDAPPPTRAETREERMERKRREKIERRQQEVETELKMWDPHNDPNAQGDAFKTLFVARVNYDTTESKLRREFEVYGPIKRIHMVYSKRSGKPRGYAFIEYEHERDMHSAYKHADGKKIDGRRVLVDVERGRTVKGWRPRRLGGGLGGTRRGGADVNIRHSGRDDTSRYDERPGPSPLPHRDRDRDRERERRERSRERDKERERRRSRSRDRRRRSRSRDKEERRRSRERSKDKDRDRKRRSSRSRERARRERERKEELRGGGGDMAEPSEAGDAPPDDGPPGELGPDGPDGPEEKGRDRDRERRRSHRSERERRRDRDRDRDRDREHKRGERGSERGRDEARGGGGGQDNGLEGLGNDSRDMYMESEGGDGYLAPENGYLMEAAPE
# UniProt P11908: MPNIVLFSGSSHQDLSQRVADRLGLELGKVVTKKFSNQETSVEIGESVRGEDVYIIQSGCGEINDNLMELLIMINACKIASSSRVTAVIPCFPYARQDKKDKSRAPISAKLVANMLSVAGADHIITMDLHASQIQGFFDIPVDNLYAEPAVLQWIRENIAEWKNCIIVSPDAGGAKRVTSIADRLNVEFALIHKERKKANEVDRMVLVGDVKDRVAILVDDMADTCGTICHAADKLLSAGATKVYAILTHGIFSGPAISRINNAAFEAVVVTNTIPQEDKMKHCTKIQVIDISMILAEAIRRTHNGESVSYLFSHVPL
# UniProt P14625, whole entry: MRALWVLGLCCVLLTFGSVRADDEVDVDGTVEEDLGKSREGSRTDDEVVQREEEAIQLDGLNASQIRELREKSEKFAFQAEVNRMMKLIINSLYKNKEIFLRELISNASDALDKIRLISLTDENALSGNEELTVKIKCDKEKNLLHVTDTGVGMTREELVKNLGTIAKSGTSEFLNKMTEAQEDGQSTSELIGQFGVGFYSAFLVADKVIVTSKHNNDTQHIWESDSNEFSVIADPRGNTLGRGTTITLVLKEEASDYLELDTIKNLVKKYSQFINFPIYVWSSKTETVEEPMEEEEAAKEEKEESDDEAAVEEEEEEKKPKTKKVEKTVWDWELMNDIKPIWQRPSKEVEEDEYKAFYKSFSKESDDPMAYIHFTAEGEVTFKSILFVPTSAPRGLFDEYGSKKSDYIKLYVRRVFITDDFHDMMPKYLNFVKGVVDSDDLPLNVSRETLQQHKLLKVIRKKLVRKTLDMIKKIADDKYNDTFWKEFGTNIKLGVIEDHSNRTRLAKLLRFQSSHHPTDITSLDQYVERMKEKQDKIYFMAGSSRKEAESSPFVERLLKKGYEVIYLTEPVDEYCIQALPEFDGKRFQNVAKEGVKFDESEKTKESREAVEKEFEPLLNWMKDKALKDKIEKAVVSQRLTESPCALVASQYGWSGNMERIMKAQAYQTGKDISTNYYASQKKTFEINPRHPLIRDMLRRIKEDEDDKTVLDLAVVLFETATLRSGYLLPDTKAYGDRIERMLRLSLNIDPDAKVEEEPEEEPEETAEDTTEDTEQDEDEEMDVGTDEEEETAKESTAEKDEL
# UniProt P24752: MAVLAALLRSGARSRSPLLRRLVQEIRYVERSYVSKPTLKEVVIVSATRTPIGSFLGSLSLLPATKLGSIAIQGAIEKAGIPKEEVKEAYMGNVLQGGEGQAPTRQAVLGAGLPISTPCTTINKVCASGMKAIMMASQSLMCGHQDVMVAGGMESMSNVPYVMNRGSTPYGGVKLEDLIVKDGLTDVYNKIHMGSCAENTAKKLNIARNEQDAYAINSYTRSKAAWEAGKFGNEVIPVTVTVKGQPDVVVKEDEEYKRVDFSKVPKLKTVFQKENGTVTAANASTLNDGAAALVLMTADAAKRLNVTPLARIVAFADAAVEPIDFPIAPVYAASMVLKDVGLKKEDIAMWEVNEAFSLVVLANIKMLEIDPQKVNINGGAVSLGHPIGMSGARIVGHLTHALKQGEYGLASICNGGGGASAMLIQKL
# UniProt P23284: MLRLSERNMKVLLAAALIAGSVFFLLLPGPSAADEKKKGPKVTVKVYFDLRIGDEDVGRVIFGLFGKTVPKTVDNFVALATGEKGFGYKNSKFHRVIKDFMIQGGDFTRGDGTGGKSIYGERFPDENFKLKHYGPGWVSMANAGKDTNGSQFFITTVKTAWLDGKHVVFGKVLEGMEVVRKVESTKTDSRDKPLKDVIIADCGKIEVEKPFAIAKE
# UniProt P16403, whole entry: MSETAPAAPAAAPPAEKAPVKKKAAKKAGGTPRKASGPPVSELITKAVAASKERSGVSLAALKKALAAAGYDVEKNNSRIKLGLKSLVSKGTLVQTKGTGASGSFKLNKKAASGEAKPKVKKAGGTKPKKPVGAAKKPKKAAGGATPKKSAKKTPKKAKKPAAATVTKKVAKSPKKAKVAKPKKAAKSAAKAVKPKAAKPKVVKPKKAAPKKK
# UniProt P0C7T5: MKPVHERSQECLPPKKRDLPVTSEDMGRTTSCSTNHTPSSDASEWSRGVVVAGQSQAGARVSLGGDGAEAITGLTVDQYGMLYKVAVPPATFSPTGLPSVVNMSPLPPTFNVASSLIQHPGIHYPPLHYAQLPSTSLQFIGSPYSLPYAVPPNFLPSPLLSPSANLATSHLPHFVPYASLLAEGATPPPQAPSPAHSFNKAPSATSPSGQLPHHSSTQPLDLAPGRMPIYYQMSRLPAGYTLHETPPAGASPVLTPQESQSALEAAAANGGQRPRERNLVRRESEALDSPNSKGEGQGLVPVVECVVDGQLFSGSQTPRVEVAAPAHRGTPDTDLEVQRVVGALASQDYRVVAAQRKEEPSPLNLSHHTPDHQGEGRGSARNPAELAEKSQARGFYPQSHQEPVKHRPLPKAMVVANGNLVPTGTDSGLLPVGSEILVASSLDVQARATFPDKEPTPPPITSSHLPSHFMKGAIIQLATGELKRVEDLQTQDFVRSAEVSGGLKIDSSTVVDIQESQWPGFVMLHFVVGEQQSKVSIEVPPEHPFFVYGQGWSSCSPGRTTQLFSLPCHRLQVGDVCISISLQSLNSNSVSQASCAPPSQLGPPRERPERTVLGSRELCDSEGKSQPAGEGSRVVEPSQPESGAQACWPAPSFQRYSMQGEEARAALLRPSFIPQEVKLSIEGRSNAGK
# UniProt P07339: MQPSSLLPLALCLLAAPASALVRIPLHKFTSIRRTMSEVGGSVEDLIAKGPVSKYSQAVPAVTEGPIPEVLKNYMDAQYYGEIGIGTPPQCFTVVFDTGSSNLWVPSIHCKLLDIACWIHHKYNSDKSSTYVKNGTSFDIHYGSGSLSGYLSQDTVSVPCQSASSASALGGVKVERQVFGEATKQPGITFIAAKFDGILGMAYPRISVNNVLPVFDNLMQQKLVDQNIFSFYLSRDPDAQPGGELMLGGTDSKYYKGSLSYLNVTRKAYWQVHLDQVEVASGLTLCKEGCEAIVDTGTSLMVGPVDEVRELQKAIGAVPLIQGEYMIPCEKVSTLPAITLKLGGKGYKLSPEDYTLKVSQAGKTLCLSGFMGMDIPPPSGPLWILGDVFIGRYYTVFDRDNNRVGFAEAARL
# ± gives the standard deviation of the averaged measurements. This is one part of the list.
# Compound: Nc1nc2c(ncn2[C@@H]2O[C@H](COP(=O)(O)OP(=O)(O)OP(=O)(O)O)[C@@H](O)[C@H]2O)c(=O)[nH]1 [guanosine triphosphate]
# Test: NP40-soluble protein abundance relative to vehicle (solubility fold change) (ratio); higher = more soluble protein in presence of GTP
# In short: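 Crude Jurkat lysate, prepared by Dounce homogenisation, was exposed to eight concentrations from 0.1 to 10 mM for 10 min at room temperature and then 3 min at 37 °C. Solubilisation used 0.8% NP40 with benzonase for 60 min at 4 °C, followed by ultracentrifugation and TMT labelling of the supernatant for LC-MS/MS. After vsn normalisation of intensities, each value is the fold change against the detergent-processed vehicle within each replicate, across three independent experiments.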
Target,NP40-soluble protein abundance (concentration: 0.1mM),NP40-soluble protein abundance (concentration: 0.5mM),NP40-soluble protein abundance (concentration: 1mM),NP40-soluble protein abundance (concentration: 2mM),NP40-soluble protein abundance (concentration: 4mM),NP40-soluble protein abundance (concentration: 6mM),NP40-soluble protein abundance (concentration: 8mM),NP40-soluble protein abundance (concentration: 10mM)
UniProt P14324-2,1.01 ± 0.027,0.973 ± 0.03,0.925 ± 0.026,0.875 ± 0.038,0.862 ± 0.022,0.872 ± 0.022,0.855 ± 0.068,0.798 ± 0.053
HCLS1 (UniProt P14317),0.877 ± 0.12,0.938 ± 0.13,0.906 ± 0.12,0.871 ± 0.15,0.833 ± 0.13,0.879 ± 0.13,0.888 ± 0.11,0.899 ± 0.14
RNH1 (UniProt P13489),1.01 ± 0.048,0.994 ± 0.09,0.92 ± 0.046,0.904 ± 0.078,0.903 ± 0.077,0.896 ± 0.084,0.876 ± 0.054,0.846 ± 0.071
UniProt P16284 and related entries,0.93 ± 0.077,0.896 ± 0.074,0.935 ± 0.071,0.905 ± 0.12,0.897 ± 0.1,0.89 ± 0.097,0.899 ± 0.074,0.927 ± 0.09
UniProt P18859 and related entries,0.997 ± 0.054,1.06 ± 0.094,1.09 ± 0.16,1.11 ± 0.15,1.03 ± 0.13,1.15 ± 0.14,1.15 ± 0.35,1.12 ± 0.26
TRIM21 (UniProt P19474),1.02 ± 0.022,0.992 ± 0.043,0.926 ± 0.023,0.908 ± 0.027,0.914 ± 0.034,0.918 ± 0.04,0.909 ± 0.012,0.829 ± 0.048
SNRNP70 (UniProt P08621),1.02 ± 0.034,1.182 ± 0.0083,1.23 ± 0.022,1.29 ± 0.049,1.39 ± 0.11,1.54 ± 0.13,1.66 ± 0.19,1.69 ± 0.17
PRPS2 (UniProt P11908),1.03 ± 0.13,1.17 ± 0.2,1.16 ± 0.27,1.26 ± 0.24,1.22 ± 0.26,1.27 ± 0.29,1.26 ± 0.33,1.24 ± 0.26
HSP90B1 (UniProt P14625),0.96 ± 0.015,0.99 ± 0.02,0.946 ± 0.029,0.916 ± 0.022,0.901 ± 0.034,0.922 ± 0.025,0.908 ± 0.021,0.888 ± 0.03
ACAT1 (UniProt P24752),0.954 ± 0.049,0.995 ± 0.046,0.955 ± 0.057,0.918 ± 0.056,0.912 ± 0.045,0.931 ± 0.043,0.938 ± 0.047,0.919 ± 0.051
PPIB (UniProt P23284),0.896 ± 0.11,0.915 ± 0.088,0.897 ± 0.099,0.872 ± 0.099,0.895 ± 0.11,0.89 ± 0.1,0.919 ± 0.11,0.905 ± 0.11
RPL13 (UniProt P26373),0.952 ± 0.062,1.05 ± 0.043,1.1 ± 0.13,1.03 ± 0.16,0.937 ± 0.25,0.925 ± 0.23,0.797 ± 0.22,0.962 ± 0.26
HIST1H1C (UniProt P16403),0.984 ± 0.038,1.11 ± 0.074,1.18 ± 0.072,1.22 ± 0.048,1.23 ± 0.096,1.38 ± 0.074,1.26 ± 0.1,1.78 ± 0.15
ATXN1L (UniProt P0C7T5),0.973 ± 0.13,0.911 ± 0.05,0.865 ± 0.064,0.896 ± 0.11,0.928 ± 0.037,0.977 ± 0.027,0.966 ± 0.1,0.882 ± 0.1
CTSD (UniProt P07339),0.929 ± 0.041,0.945 ± 0.032,0.911 ± 0.042,0.861 ± 0.022,0.863 ± 0.034,0.865 ± 0.036,0.857 ± 0.056,0.837 ± 0.047
